In PubChem BioAssay AID248 (DTP/NCI, 2004):
The list shows only some results of the screen, not a fair sample: it gathers tests that were run many times, whatever their T/C, doses with no T/C, and many T/C values between a quarter and a half above the control. Further doses and runs are listed elsewhere. T/C: endpoint of the treated group in % of that of the vehicle group. Some doses have a count of surviving animals in place of a T/C: the source holds a T/C of zero for them, seemingly a mark for toxic or unscored doses. Some doses without a T/C left all or most animals alive at the check, yet need not have been tolerated: survival well below the control is almost never listed, so the zero probably covers shortened survival too. Counts of survivors are from the toxicity check (mostly the fifth day) where no day follows; animals may have died later. Schedule codes are those of the source, read here as Q, the interval in days (D) or hours (H), X, the number of doses. Some molecules as drawn cover several salts, stereoisomers or complexes of the source; a dose is that of the sample tested. Some doses were run more than once; the results are listed from low to high. Where survival is the endpoint, the PubChem record calls one and a half times the control and up active, and a quarter to a half above the control has no call in these data; cut-offs in other NCI protocols can differ. Some schedules carry Z or #; the key to these is not given.

Tested on: L1210 leukemia ip in BDF1 mice, survival T/C
Assay: NCI In Vivo Anticancer Drug Screen. Data for tumor model L1210 Leukemia (intraperitoneal) in B6D2F1 (BDF1) mice
Conditions: T/C endpoint: mean survival time, higher T/C = longer survival
[1] = dose: 300.0 mg/kg/injection, schedule: Q01DX001 (ip), vehicle: saline
[2] = dose: 200.0 mg/kg/injection, schedule: Q01DX009 (ip), vehicle: saline
[3] = dose: 400.0 mg/kg/injection, schedule: Q01DX009 (ip), vehicle: saline
[4] = dose: 400.0 mg/kg/injection, schedule: Q04DX003 (ip), vehicle: saline
[5] = dose: 100.0 mg/kg/injection, schedule: Q01DX009 (ip), vehicle: saline with Tween-80
[6] = dose: 400.0 mg/kg/injection, schedule: Q01DX001 (ip), vehicle: saline with Tween-80
[7] = dose: 400.0 mg/kg/injection, schedule: Q01DX009 (ip), vehicle: saline with Tween-80
[8] = dose: 25.0 mg/kg/injection, schedule: Q01DX009 (ip), vehicle: Klucel (hydroxypropylcellulose) (HPC)
[9] = dose: 50.0 mg/kg/injection, schedule: Q01DX009 (ip), vehicle: Klucel (hydroxypropylcellulose) (HPC)
[10] = dose: 200.0 mg/kg/injection, schedule: Q01DX009 (ip), vehicle: Klucel (hydroxypropylcellulose) (HPC)
[11] = dose: 400.0 mg/kg/injection, schedule: Q01DX009 (ip), vehicle: Klucel (hydroxypropylcellulose) (HPC)
[12] = dose: 100.0 mg/kg/injection, schedule: Q01DX009 (ip), vehicle: saline
[13] = dose: 200.0 mg/kg/injection, schedule: Q04DX003 (ip), vehicle: saline
[14] = dose: 200.0 mg/kg/injection, schedule: Q04DX003 (ip), vehicle: saline with Tween-80
[15] = dose: 400.0 mg/kg/injection, schedule: Q04DX003 (ip), vehicle: other
[16] = dose: 400.0 mg/kg/injection, schedule: Q01DX001 (ip), vehicle: carboxymethylcellulose (CMC)

## C=C1C(=O)OC2CC3(C)C(OC(C)=O)CC=C(C)C3C(OC(C)=O)C12 (configuration not stated) (tested in a mixture with another compound)
[1]
  survivor count: 3 of 6

## Cc1cccc(NCC(=O)NN)c1C
dose: 100.0 mg/kg/injection, schedule: Q04DX002 (ip), vehicle: Klucel (hydroxypropylcellulose) (HPC)
  survivor count: 2 of 3
dose: 200.0 mg/kg/injection, schedule: Q01DX009 (ip), vehicle: carboxymethylcellulose (CMC)
  survivor count: 1 of 3

## O=C1CC2c3ccccc3C1C1C(=O)OC(=O)C21 (configuration not stated)
[2]
  survivor count: 4 of 6
[3]
  survivor count: 1 of 6
[4]
  survivor count: 0 of 6

## CC(=O)Nc1ccc(OCCOC(=O)Nc2ccc(C)c([N+](=O)[O-])c2)cc1
[5]
  survivor count: 3 of 3

## c1n[nH]c2c1CCCC2
[6]
  survivor count: 3 of 6
[7]
  survivor count: 5 of 6
dose: 400.0 mg/kg/injection, schedule: Q04DX002 (ip), vehicle: saline with Tween-80
  survivor count: 0 of 3

## CCCCCCCCCCP(=O)(CCCC)CCCC
[8]
  survivor count: 6 of 6
[9]
  survivor count: 6 of 6
[10]
  survivor count: 5 of 6
[11]
  survivor count: 1 of 5

## O=C1C2(c3ccccc3)CCC1(c1ccccc1)C(c1ccccc1)=C2c1ccccc1
dose: 200.0 mg/kg/injection, schedule: Q01DX001 (ip), vehicle: saline with Tween-80
  survivor count: 3 of 3
[6]
  survivor count: 3 of 3

## CCOC(=O)C(C#N)C(=N)C1CC(C)(C)OC1=O (configuration not stated)
dose: 300.0 mg/kg/injection, schedule: Q01DX001 (ip), vehicle: other
  survivor count: 2 of 6

## CCCCCCCCCCCC[N+](C)(C)C
dose: 40.0 mg/kg/injection, schedule: Q01DX009 (ip), vehicle: saline
  survivor count: 0 of 6
[12]
  survivor count: 0 of 6
[2]
  survivor count: 0 of 6
[3]
  survivor count: 0 of 6

## Cc1ncc(CO)c(COCCC(C)C)c1O
dose: 400.0 mg/kg/injection, schedule: Q04DX002 (ip), vehicle: saline
  survivor count: 0 of 3

## CNN
dose: 50.0 mg/kg/injection, schedule: Q01DX009 (ip), vehicle: saline
  survivor count: 4 of 6
[12]
  survivor count: 0 of 6
[13]
  survivor count: 0 of 6
[4]
  survivor count: 0 of 6

## Cc1ccc2c[n+]3cc4ccccc4cc3cc2c1
dose: 12.5 mg/kg/injection, schedule: Q01DX009 (ip), vehicle: saline
  survivor count: 0 of 6
dose: 25.0 mg/kg/injection, schedule: Q04DX003 (ip), vehicle: saline
  survivor count: 6 of 6
dose: 50.0 mg/kg/injection, schedule: Q04DX003 (ip), vehicle: saline
  survivor count: 1 of 6
dose: 100.0 mg/kg/injection, schedule: Q04DX003 (ip), vehicle: saline
  survivor count: 2 of 6
[13]
  survivor count: 0 of 6
[4]
  survivor count: 0 of 6

## CCCCCCCCCCCCCC[Si](Cl)(Cl)Cl
[1]
  survivor count: 2 of 6

## c1ccc(N/N=C(/C[n+]2cc3ccccc3c3ccccc32)c2ccccc2)cc1
[10]
  survivor count: 4 of 6
[11]
  survivor count: 0 of 6

## Cc1ccc(NS(=O)(=O)c2ccc(Br)cc2)c(C)c1
[5]
  survivor count: 6 of 6

## CC(=O)C(C(C)=O)C(c1ccc2c(c1)OCO2)C(C(C)=O)C(C)=O
[5]
  survivor count: 6 of 6
dose: 200.0 mg/kg/injection, schedule: Q01DX009 (ip), vehicle: saline with Tween-80
  survivor count: 6 of 6
[14]
  survivor count: 5 of 6
dose: 400.0 mg/kg/injection, schedule: Q04DX003 (ip), vehicle: saline with Tween-80
  survivor count: 6 of 6

## Cc1nc2c(NC(=O)C(F)(F)F)nn(C)c2nc1C
[7]
  survivor count: 2 of 6

## NC(N)=NCCCCCC(=O)O
[2]
  survivor count: 5 of 6
[3]
  survivor count: 0 of 6 and 1 of 6

## O=C(O)CNCc1cccc(Cl)c1
[2]
  survivor count: 6 of 6

## CCCCc1ccc(Nc2cc(=O)[nH]c(=O)[nH]2)cc1
dose: 100.0 mg/kg/injection, schedule: Q01DX001 (ip), vehicle: gum acacia
  survivor count: 6 of 6

## Cc1ccc(S(=O)(=O)OCC2C3CCC(C3=O)C2COS(=O)(=O)c2ccc(C)cc2)cc1 (configuration not stated)
[14]
  survivor count: 6 of 6

## O=C(O)C1OC1(c1cccc(Cl)c1)c1ccccc1Cl (configuration not stated)
dose: 400.0 mg/kg/injection, schedule: Q01DX001 (ip), vehicle: olive oil, sesame oil, peanut oil
  survivor count: 1 of 4

## CC1(C)C=C(C(Br)c2ccc(Cl)cc2)C(=O)c2ccccc21 (configuration not stated)
dose: 400.0 mg/kg/injection, schedule: Q04DX003 (ip), vehicle: Klucel (hydroxypropylcellulose) (HPC)
  survivor count: 6 of 6

## CC1(C)C2CCC1(C)C(CO)C2 (configuration not stated)
[15]
  survivor count: 6 of 6

## NCCCC(=S)S
dose: 100.0 mg/kg/injection, schedule: Q04DX002 (ip), vehicle: saline
  survivor count: 3 of 3

## Cc1cc(=O)oc2cc(OC(=O)Nc3ccc(F)c(Cl)c3)ccc12
[8]
  survivor count: 0 of 3
[9]
  survivor count: 0 of 3

## CC(=O)Nc1ccccc1SC(C)=O
dose: 200.0 mg/kg/injection, schedule: Q04DX003 (ip), vehicle: other
  survivor count: 3 of 6
[15]
  survivor count: 0 of 6

## CC(C)CCCC(C)C1CCC2C3CCC4CC(=O)CCC4(C)C3CCC12C (configuration not stated)
[9]
  survivor count: 3 of 3

## [N-]=[N+]=C1N=CN=C1c1ncn[nH]1
dose: 12.0 mg/kg/injection, schedule: Q01DX015 (ip), vehicle: carboxymethylcellulose (CMC)
  T/C: 128 % of control
dose: 12.0 mg/kg/injection, schedule: Q01DX Z (ip), vehicle: carboxymethylcellulose (CMC)
  T/C: 130 % of control
dose: 17.0 mg/kg/injection, schedule: Q01DX015 (ip), vehicle: carboxymethylcellulose (CMC)
  T/C: 129 % of control
dose: 18.0 mg/kg/injection, schedule: Q01DX Z (ip), vehicle: carboxymethylcellulose (CMC)
  T/C: 130 % of control
dose: 25.0 mg/kg/injection, schedule: Q01DX015 (ip), vehicle: carboxymethylcellulose (CMC)
  T/C: 132 % of control
dose: 25.0 mg/kg/injection, schedule: Q01DX Z (ip), vehicle: carboxymethylcellulose (CMC)
  T/C: 133 % of control
dose: 37.0 mg/kg/injection, schedule: Q01DX015 (ip), vehicle: carboxymethylcellulose (CMC)
  T/C: 143 and 147 % of control
dose: 37.0 mg/kg/injection, schedule: Q01DX Z (ip), vehicle: carboxymethylcellulose (CMC)
  T/C: 138 % of control
dose: 80.0 mg/kg/injection, schedule: Q01DX015 (ip), vehicle: carboxymethylcellulose (CMC)
  survivor count: 1 of 6
dose: 100.0 mg/kg/injection, schedule: Q01DX001 (ip), vehicle: carboxymethylcellulose (CMC)
  survivor count: 3 of 6
dose: 120.0 mg/kg/injection, schedule: Q01DX015 (ip), vehicle: carboxymethylcellulose (CMC)
  survivor count: 0 of 6
dose: 200.0 mg/kg/injection, schedule: Q01DX001 (ip), vehicle: carboxymethylcellulose (CMC)
  survivor count: 0 of 6
[16]
  survivor count: 0 of 6

## CC(Cl)CCN1CCCCC1 (configuration not stated)
dose: 100.0 mg/kg/injection, schedule: Q01DX001 (ip), vehicle: saline
  survivor count: 0 of 4
dose: 200.0 mg/kg/injection, schedule: Q01DX001 (ip), vehicle: saline
  survivor count: 0 of 4
dose: 400.0 mg/kg/injection, schedule: Q01DX001 (ip), vehicle: saline
  survivor count: 0 of 4

## CC(=O)N1CCCCC1
[16]
  survivor count: 2 of 4
[3]
  survivor count: 0 of 6

## Cc1ccc2c(n1)Nc1nc(N)[nH]c(=O)c1S2
dose: 50.0 mg/kg/injection, schedule: Q04DX003 (ip), vehicle: carboxymethylcellulose (CMC)
  survivor count: 0 of 6
dose: 100.0 mg/kg/injection, schedule: Q04DX003 (ip), vehicle: carboxymethylcellulose (CMC)
  survivor count: 0 of 6
dose: 200.0 mg/kg/injection, schedule: Q04DX003 (ip), vehicle: carboxymethylcellulose (CMC)
  survivor count: 0 of 6
dose: 400.0 mg/kg/injection, schedule: Q04DX003 (ip), vehicle: carboxymethylcellulose (CMC)
  survivor count: 0 of 6
